Measurements from paper PMC11365554.

Target: CCDC188 (mouse (endogenous in testis))
Assay: affinity purification with mass spectrometry; IP-MS in mouse testis protein lysates with anti-CCDC188 antibody or IgG antibody; two independent replicates for each group

B1: SUN5 (protein, UniProt Q9DA32 1-373)
chain: MPRTRNIGALCTLPEDTTHSGRPRRGVQRSYISRMAEPAPANMNDPLLLPLRMNTPGLSLVQILLGYMSWLTYLACFLRTQTQQVFLNTCRCKLFCQKVMEKMGLLVLCVFGFWMFSMHLPSKVEVWQDDSINGPLQSLRMYQEKVRHHTGEIQDLRGSMNQLIAKLQKMEAISDEQKMAQKIMKMIQGDYIEKPDFALKSIGASIDFEHTSATYNHDKARSYWNWIRLWNYAQPPDVILEPNVTPGNCWAFASDRGQVTIRLAQKVYLSNITLQHIPKTISLSGSPDTAPKDIVIYGLESLPREEVFLGAFQFQPENVIQMFQLQNLPPRSFAAVKVKISSNWGNPRFTCMYRVRVHGSVTPPKDSHLEPLS
B1 was tested, and the binding was “binds”.

B2: PMFBP1 (protein, UniProt Q9WVQ0 1-1022)
chain: MLKLKGELRTAKGLKNEAGERDRDVSNLNSKLLSLQLDIKNLHDVCKRQGKTLQENQLCVEEAMLKANHNKKQAQTLVFTDNQMDFRVNKQYHLRQLQQLKKKLLTLQQELEFRTQELQASYCSLLQYQSILEKQTSDLLVLHRHCKLKEDEVILYEEEMGNHSKSTGEKLHLAQEQLALAGDKILSLERSLNLYRDKYQTSLSNIELLECQVKMLEGELSGLIGQDPENKGDHPKVRIYTSPCVIQEHQETLKRLSEVWQKVSEQDDLIQELRNKLACSNSLVLEREEALIKLQAEFASYTATHRHPPTSSEDCEDITKILKHLQEQKDSQCLHVEEYQNLVKDLRMELEAVSEQKKKIMKDMMKLELDLHGLREETSCVIEKKDKETVFLQYRLQDLQQQYTESQKLSLKKDKLLQDKDERLHELEKNLMQVQNSLREKEAELEKLQCTTKELDTSLQEARQSTSKIDCEALRAEIQKLKDSLEEAREQLKVSDQNLTQSKEEAHLSASSLEDAHRKIENCLLQDKQKEEVIKDLQSQLHKLQKESSKIEEERKHNRQRLQELSSELSEGQRRLSNAEKEKSLLQKTLDEDEKKIDELFHSTQVSEQKQRELTNSIRKLEEELLEIKGLLEEKREQLKKSKEQEKALEEEIEALRQEAKRKEKMAKEHLRKLDEEKENLQAELTSRSSHLDSSLNKYNSSQKVIQELNAEIARQKDSIMILQTQLDSAIQKEKNCFQNMVSKEAYEELVRKSGNCQDDLTQALEKLTQATSETKSLNRSLQQTQERKAQLEDEIAAYEERMKKLNMELKKLQGFQQQSEQEVHNFDKKLEEMSNQVLQWQRQHQSDLKMLAAKESQLREFQEEMATLRESLLADEKEPYSPPAKLTPKETCRHHRENDQIMNNVEQWAKEQKIANEKLGNKLREQVKYIAKLTGEKDHLHNVMVHLQQENKKLKNEIEEKKLKAGNPRICVKAFPPNKLEPSQKGKLCCALGWRGIPQDLTPKTDHKYMGLPHSSGSSYC
With B2 the binding was “binds”.

No constants are given. Whether binding was seen depends on the method and setting. Binding seen in cells or lysates may run through a third protein. These calls come from enrichment with a bait or labelling near it, and not all partners need be listed.
